Reference: patent US11442059B2, “Method for treating a chronic itch condition by administering small molecule MrgprX4 antagonists” (The Johns Hopkins University, priority 2017, dated 2022)
Results are given in words; binding and its absence hold for the method and conditions named. Some results given as binding are weak or reduced against the parent protein; the word gives no strength.

Biological target: T1, C11 (mouse) (UniProt Q8CIP3)
T1 sequence (receptor, looked up): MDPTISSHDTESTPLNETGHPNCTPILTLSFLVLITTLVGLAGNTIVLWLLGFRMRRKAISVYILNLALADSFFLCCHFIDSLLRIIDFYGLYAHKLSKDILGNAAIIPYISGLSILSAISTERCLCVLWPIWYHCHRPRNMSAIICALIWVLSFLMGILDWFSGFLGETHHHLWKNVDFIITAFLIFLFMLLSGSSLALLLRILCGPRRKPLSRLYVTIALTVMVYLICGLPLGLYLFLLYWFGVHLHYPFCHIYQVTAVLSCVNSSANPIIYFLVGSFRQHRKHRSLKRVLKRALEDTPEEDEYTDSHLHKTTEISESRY
Assay: microscale thermophoresis binding isotherm (T-Jump), GFP-tagged MRGPRC11 membrane fraction, mean of 3 experiments [panel n]

B1: BAM8-22 (peptide)
peptide: VGRPEWWMDYQKRYG
**Q.** For B1, which binding is on record?
**A.** binds
